Laboratory results reported in US4794169A, “Pentapeptides with cell growth regulatory effects and a process for the preparation thereof” (Bio-Tech A/S, priority 1985, dated 1988).
Not every detail of the peptide structures is certain; ends, links or a residue may be inferred. Ends that are not written are not given here.

Tested on: mouse epidermal mitotic rate
Assay: Change in mouse epidermal mitotic rate after intraperitoneal injection (Colcemid method)
Type: in vivo
Settings: mouse epidermis, first three hours after i.p. injection; 10^-11 -10^-14 moles of peptide injected per mouse; vs control animals from same cage
Method: In the following Table 1 in vivo results (change in mouse epidermal mitotic rate) have been described as example for four different new pentapeptides. The epidermal mitotic rate was measured for the first three hours after intraperitoneal injection of the new pentapeptides. Mitotic rate was determined by means of "Colcemid" (Demecolcine). A reduced rate was determined as a percentage in comparison with control animals from the same cage.

## PEDSG [Compound 4, Pro--Glu--Asp--Ser--Gly]
  Decrease in mitotic rate %: 23-26%
